According to publication doi:10.1101/386532 (bioRxiv, 2018):
Results are given in words; binding and its absence hold for the method and conditions named.

Target: T1, CHMP2B(196–213) peptide, fluorescently labelled (human) (UniProt Q9UQN3)
T1 sequence (peptide, Oregon Green 488 maleimide label): ATISDEEIERQLKALGVD
Experiment: fluorescence polarisation

- binding: no binding
B1: IST1(1–189) (IST1NTD) (domain or fragment, human, UniProt P53990 1-189, looked up)
chain: MLGSGFKAERLRVNLRLVINRLKLLEKKKTELAQKARKEIADYLAAGKDERARIRVEHIIREDYLVEAMEILELYCDLLLARFGLIQSMKELDSGLAESVSTLIWAAPRLQSEVAELKIVADQLCAKYSKEYGKLCRTNQIGTVNDRLMHKLSVEAPPKILVERYLIEIAKNYNVPYEPDSVVMAEAPP
